Publication PMC10669561
Read-outs that look alike come from different tables or passages of the source. No constants are given. Whether binding was seen depends on the method and setting. In cells and extracts the contact can be indirect. Some binding calls cover weakened binding; strength is not graded here.

By UniProt entry, the sequences of proteins in these tests, tags left out.
UniProt Q96EB6: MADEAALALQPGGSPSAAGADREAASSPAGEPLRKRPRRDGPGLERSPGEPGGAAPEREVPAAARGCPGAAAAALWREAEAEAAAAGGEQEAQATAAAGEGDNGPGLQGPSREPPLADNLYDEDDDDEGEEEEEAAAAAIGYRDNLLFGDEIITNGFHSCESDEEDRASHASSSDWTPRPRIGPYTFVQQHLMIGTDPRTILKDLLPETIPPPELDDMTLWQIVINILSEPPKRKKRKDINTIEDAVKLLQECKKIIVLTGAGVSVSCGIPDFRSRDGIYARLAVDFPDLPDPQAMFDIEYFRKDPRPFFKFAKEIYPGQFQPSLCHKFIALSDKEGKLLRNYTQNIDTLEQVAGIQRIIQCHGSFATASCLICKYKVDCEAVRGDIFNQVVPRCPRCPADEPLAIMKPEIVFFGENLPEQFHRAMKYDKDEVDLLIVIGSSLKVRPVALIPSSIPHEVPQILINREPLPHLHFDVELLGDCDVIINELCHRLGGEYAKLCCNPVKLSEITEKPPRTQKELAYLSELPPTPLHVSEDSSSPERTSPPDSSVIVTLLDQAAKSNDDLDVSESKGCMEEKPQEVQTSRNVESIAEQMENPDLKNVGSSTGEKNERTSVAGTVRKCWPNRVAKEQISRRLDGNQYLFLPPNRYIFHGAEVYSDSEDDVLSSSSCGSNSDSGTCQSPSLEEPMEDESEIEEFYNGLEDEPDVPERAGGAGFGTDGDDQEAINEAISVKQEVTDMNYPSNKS
UniProt Q04206: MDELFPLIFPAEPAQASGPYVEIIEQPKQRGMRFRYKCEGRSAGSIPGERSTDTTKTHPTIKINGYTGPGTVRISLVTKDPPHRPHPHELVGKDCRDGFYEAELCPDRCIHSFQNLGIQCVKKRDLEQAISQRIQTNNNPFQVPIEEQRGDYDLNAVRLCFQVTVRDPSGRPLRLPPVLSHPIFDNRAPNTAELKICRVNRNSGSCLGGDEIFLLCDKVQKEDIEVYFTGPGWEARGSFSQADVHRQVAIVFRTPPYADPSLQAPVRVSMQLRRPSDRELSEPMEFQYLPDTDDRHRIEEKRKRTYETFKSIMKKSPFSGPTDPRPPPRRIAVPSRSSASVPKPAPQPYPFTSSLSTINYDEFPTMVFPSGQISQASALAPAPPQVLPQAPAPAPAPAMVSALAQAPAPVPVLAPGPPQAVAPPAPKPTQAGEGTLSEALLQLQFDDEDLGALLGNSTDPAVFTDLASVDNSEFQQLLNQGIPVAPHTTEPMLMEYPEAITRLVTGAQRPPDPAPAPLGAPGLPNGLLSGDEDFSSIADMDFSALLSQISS

T1: NOX4 (NADPH oxidase 4) (human (endogenous in HUVECs)) (UniProt Q9NPH5)
T1 sequence: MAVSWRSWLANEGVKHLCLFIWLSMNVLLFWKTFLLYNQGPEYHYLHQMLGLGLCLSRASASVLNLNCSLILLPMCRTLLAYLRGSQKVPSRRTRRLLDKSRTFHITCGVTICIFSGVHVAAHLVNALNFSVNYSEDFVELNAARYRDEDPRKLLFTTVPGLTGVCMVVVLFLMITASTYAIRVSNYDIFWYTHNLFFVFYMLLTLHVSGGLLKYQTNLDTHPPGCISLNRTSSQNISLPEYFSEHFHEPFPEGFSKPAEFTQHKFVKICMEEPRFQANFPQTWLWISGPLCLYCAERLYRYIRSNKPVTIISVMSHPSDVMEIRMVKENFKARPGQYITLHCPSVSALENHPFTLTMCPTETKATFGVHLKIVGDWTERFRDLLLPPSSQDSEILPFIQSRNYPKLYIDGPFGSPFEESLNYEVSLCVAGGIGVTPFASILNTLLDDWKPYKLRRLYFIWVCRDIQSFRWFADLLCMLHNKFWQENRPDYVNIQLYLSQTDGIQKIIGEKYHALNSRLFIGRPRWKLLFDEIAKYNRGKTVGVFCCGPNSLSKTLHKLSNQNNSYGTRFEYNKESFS

B1: p22 phox (protein, UniProt P13498 1-195)
chain: MGQIEWAMWANEQALASGLILITGGIVATAGRFTQWYFGAYSIVAGVFVCLLEYPRGKRKKGSTMERWGQKYMTAVVKLFGPFTRNYYVRAVLHLLLSVPAGFLLATILGTACLAIASGIYLLAAVRGEQWTPIEPKPRERPQIGGTIKQPPSNPPPRPPAEARKKPSEEEAAVAAGGPPGGPQVNPIPVTDEVV

Assays:
Assay in all cases: co-IP; endogenous proteins from HUVEC lysates; supernatant incubated overnight at 4 °C with SIRT1 or NOX4 antibody, Dynabeads Protein G, Western blotting; cells treated with echinacoside or resveratrol, control siRNA or SIRT1 siRNA
[1] = target: Sirtuin1 (SIRT1) (human (endogenous in HUVECs)) (UniProt Q96EB6)
[2] = target: T1, NOX4 (NADPH oxidase 4) (human (endogenous in HUVECs))
[3] = target: Sirtuin1 (SIRT1) (human (endogenous in HUVECs)) (UniProt Q96EB6); remark: listed apart in the source

Molecule	binding [1]	binding [2]	binding [3]
p65 (from UniProt Q04206 1-551)	binds	–	–
B1	–	binds	binds
